The values that follow come from the RNAGym collection of RNA variant scans (doi:10.1126/science.aae0568).

The labels stand for the following.
B1: tRNA (parent)
chain: GUUCCGUUGGCGUAAUGGUAACGCGUCUCCCUCCUAAGGAGAAGACUGCGGGUUCGAGUCCCGUACGGAACG

This sample is rich in variants without activity.

This data set covers variants of B1. The experiment in a line: yeast fitness relative to wild type (ratio to wild type); higher = fitter; tRNA-Arg(CCU), competitive growth, 37 C, YPD. Put shortly:
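Variants of the tRNA-Arg(CCU) gene, chemically synthesised with a 3% per-site mutation rate at 69 sites, were placed at the native genomic locus in Saccharomyces cerevisiae. The pooled strains were competed in YPD at 37°C for 24 hours in six parallel replicates. Gene amplicons from the start population and from each end population were read by 100-nucleotide paired-end sequencing. Darwinian fitness relative to wild type came from changes in genotype frequencies; genotypes needed ≥ 100 starting reads, and estimates < 0.5 were set to 0.5.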
Turning to U8A G38C G48A, the yeast fitness is no more than 0.5. As for A20U G68A A69C, the yeast fitness amounted to 0.639.

Take U13G A21C A65C C66U: the yeast fitness was no more than 0.5. Take C24U C31A U54C A57U: the yeast fitness was determined as 0.547. The result for C4G C55G U64C C66A reads no more than 0.5.

In the case of C5A C11G A36G G41C, the yeast fitness is no more than 0.5.

Take G25C G58C A65U: the yeast fitness worked out at 0.928. The result for U26C A37G C55A reads no more than 0.5.

As to C5U C34A G50A U59G C62A, the yeast fitness is no more than 0.5. The result for G39A G56C C66A reads no more than 0.5. The result for C31U U54C A69G A70G reads no more than 0.5. The result for A14U G44A C62G reads no more than 0.5; that for C5U U16A C34A U64C, no more than 0.5. Regarding G6C U16G C31U G38C C60U, the yeast fitness is no more than 0.5.

In the case of U7C A15U G48A C49U C62U, the yeast fitness was no more than 0.5. As to G25C C34A U35C, the yeast fitness is no more than 0.5.

With U8A G18A C30A U32A U35G U59A G67C, the yeast fitness is no more than 0.5. Regarding U7G C27U, the yeast fitness stood at 0.792.

Regarding C11U G18C C34U A42C, the yeast fitness is no more than 0.5. The result for C31U A36G C55G C62U reads no more than 0.5. The result for G12C A14U U26A G58A C61A reads no more than 0.5. For the variant U19A U26A C29A C46G U54A, the yeast fitness worked out at 0.603.

For the variant C46A C49A C61A, the yeast fitness was no more than 0.5. With A20G A40G A42G, the yeast fitness was no more than 0.5.

Take U2G U16G C27A C29U A36C G51A: the yeast fitness was no more than 0.5.

As to C4A G18C U35C, the yeast fitness was no more than 0.5. The result for C4A C30G G50A reads no more than 0.5; that for C4G C11U C62A C66U, no more than 0.5.

As to C11G C29U C34U G52A C62A C66U, the yeast fitness was no more than 0.5. Regarding G10A A36C, the yeast fitness was no more than 0.5.

With U8C U13G C22U A70G, the yeast fitness is no more than 0.5. U7G C29U C31U A37G G38C A70G: the yeast fitness is no more than 0.5. The result for G39A G48C A70U reads no more than 0.5. As for G12A U13G U19C A21G C55U, the yeast fitness is no more than 0.5. The result for A15G G44C A65C reads no more than 0.5; that for C4U A14G C34A, no more than 0.5.

Take G12U C33U C34G: the yeast fitness was no more than 0.5.

With G38C G51A A57U, the yeast fitness is no more than 0.5. The result for U16A G18C U26A A65C reads no more than 0.5; that for C4U A15C G23C A65G, no more than 0.5. A43C A57G U59C A70G: the yeast fitness was no more than 0.5. The result for U2A C4G G9A G44A reads no more than 0.5; that for U3A A21C U26C A42C, no more than 0.5; that for G25C C46A U59A C61A, no more than 0.5. The result for C4A C33U A57G reads no more than 0.5. The result for G12A A36C A37C U53G A70C reads no more than 0.5; that for C24A U53G A57C A69U, no more than 0.5.

Turning to G6C U26C U35C A36U A40U, the yeast fitness is no more than 0.5.

Take A42U A65U A69C: the yeast fitness is no more than 0.5.

As to A20G U32G A43C A45U, the yeast fitness is no more than 0.5.

As for A20U G68U, the yeast fitness stood at 0.792.

For the variant C4G G12C C29U G38C, the yeast fitness was no more than 0.5. The result for C5U G6C U32C reads no more than 0.5; that for U2C A14G U28G C29U A57C, no more than 0.5. The result for A14G C24G C31U G52C reads no more than 0.5. The result for U3A A21C U26C A40C A45G U59A reads no more than 0.5; that for G25A C33G G41C C61G A65U, no more than 0.5; that for C29A A37G C49A G68A, no more than 0.5. Regarding C5U C49U C55G C61A, the yeast fitness was no more than 0.5.

Consider C34U A40C A43G, for which the yeast fitness was found to be 0.513. The result for C4G G23C G25A reads no more than 0.5. The result for G6A A20C G56C reads no more than 0.5; that for C27A C55A C61U G68A A70G, no more than 0.5; that for C11U C31G A36G U54A A57U C62U A69G, no more than 0.5. Regarding A21G C29G C62G C66G, the yeast fitness is no more than 0.5. The result for A21C C24U C29U A69U reads no more than 0.5; that for A21C U28G C33U C34A G52C C61U, no more than 0.5.

In the case of U28G C46U C60A G63A A65U A69U, the yeast fitness is no more than 0.5. The result for C5U A21C G44C C46U reads 0.532. Regarding G12C C33G U35A A37C, the yeast fitness is no more than 0.5. Regarding C5U U8C C29U A43G G48C C55A, the yeast fitness was no more than 0.5. With C5U C11U C27U C31G A43C C49G G52C U59A, the yeast fitness is no more than 0.5. For A37G C66U A69U, the yeast fitness came out at 0.674. The result for A15G C24G C31G G50A reads no more than 0.5; that for U2A G6A C11G C49U U54C G58C, no more than 0.5; that for C5U C22U C33U A36U A43C C60U C61G A70G, no more than 0.5. The result for C30G C46A C62G reads no more than 0.5. In the case of A21G C27A C33G A70C, the yeast fitness was no more than 0.5. The result for A36C C46G G51C reads no more than 0.5; that for C29U A57C, 0.611; that for C22U G51C G58A, no more than 0.5. The result for U2G C49G U53A reads no more than 0.5. As to G9A A21G A40G U53A A70G, the yeast fitness is no more than 0.5. The result for C5G U7C G25A U64C G68A reads no more than 0.5; that for U3C U35A A40U A42U C55G, no more than 0.5. The result for G6C U16A G18C C22G C49U reads no more than 0.5; that for U8C G12A A65G, 0.615. The result for A14C U16A A21C G56A reads no more than 0.5; that for A21U C29U A42U C55A U59A C66A A69G, no more than 0.5; that for C4U G39A G52C C55G, no more than 0.5. In the case of C33U G48A C60U U64G A65U A69C, the yeast fitness amounted to 0.571. With C4A A20U G23A C66U, the yeast fitness was no more than 0.5. The result for C24A A70U reads 0.596; that for C11U A42U G44C U54A, no more than 0.5. The result for C11A U47G C62U A65C reads no more than 0.5; that for G10A A20U U35C G48C C60A G63A, no more than 0.5. The result for U28C G38C A45U G68A A69C reads no more than 0.5; that for C5A U28G U59C, no more than 0.5; that for C4U U13C U26A G63C, no more than 0.5. Turning to C11G U16G G38C U54A G68C, the yeast fitness was no more than 0.5. On to G6A A37C, for which the yeast fitness turned out to be 0.824.

With U28G C46A A65C, the yeast fitness was no more than 0.5.

As to U2C C34G U59A, the yeast fitness was no more than 0.5. The result for U7C A14G C29U C31U C33U C55U reads no more than 0.5; that for C22G C29A A36G, no more than 0.5.

Consider U28C C31A G41A, for which the yeast fitness is no more than 0.5. The result for G10A C24U C27G reads no more than 0.5; that for C4A G23C C34G A36U U54G C62G, no more than 0.5; that for U8G C11U G48A C66G, no more than 0.5. The result for G17A C61U C66U reads 0.599; that for C5U G6C G18A A21G G25A G51C, no more than 0.5; that for U13C A57U U59A A69G, 0.561. The result for A20C G25A U32A C34G A37U reads no more than 0.5.

For A21C C29G G68C, the yeast fitness was found to be 0.557. The result for C11U A20U G39A A70U reads no more than 0.5. The result for U2A C24G A37C C66U reads no more than 0.5; that for U7C C24U C55U C60G, no more than 0.5. The result for U54C C60G reads 0.539. U2G A45C C60G C62G G68C: the yeast fitness was no more than 0.5. Regarding C5G C33G C34U A36C A43G G52C C60U, the yeast fitness was no more than 0.5. On to G18C U19A A36U C66U, for which the yeast fitness is no more than 0.5.

As for G10C U47G A57G, the yeast fitness is no more than 0.5. The result for C24U C29U C30G C31U C60G G67A reads no more than 0.5. The result for C4U G6C G9C A37U A57G reads no more than 0.5.

On to C24A G39C A42G C55U, for which the yeast fitness was no more than 0.5. The result for G25A U53A reads 0.741; that for U7G A70U, 1.01. Turning to U2C A14G G25A A69C, the yeast fitness was no more than 0.5. The result for U2G G12A A21U C29G G58C reads no more than 0.5; that for U3A C5G G56U, no more than 0.5. The result for C11A A20U C29U C33G G51A reads no more than 0.5; that for C5A U32C A36C G63A, no more than 0.5. The result for C24G C31A A43C G44A U59A reads no more than 0.5. Regarding A15G U32A A43U, the yeast fitness was determined as 0.603. The result for C5U C24U U28C A42C A57U reads no more than 0.5. The result for C11U A14G U28C C61A reads no more than 0.5. The result for C4A C5G C24U G25A A57U reads no more than 0.5; that for U2G U28A U54C C62G, no more than 0.5. As for C5U U13A A15G A20G C22G C46G G51A, the yeast fitness is no more than 0.5. The result for C33U A36C U64C reads 0.648; that for A36U A40G G48C G50A, no more than 0.5; that for U3G A37C A40G U47C G63A, no more than 0.5.

For A20G G23A C29G, the yeast fitness was no more than 0.5.

On to C34G U47A C62A, for which the yeast fitness is no more than 0.5.

Take G44C G56C A69U: the yeast fitness is no more than 0.5.

As to G9A C29U C33U U59A A70C, the yeast fitness was no more than 0.5. The result for C5U C55A A69C reads no more than 0.5; that for C4G U8G G9A C11U C49A, no more than 0.5; that for C4A G41A C55U A70U, no more than 0.5. The result for G6C C11U G12C C30U C31U reads no more than 0.5. Consider C5G A21C U26A C34G G58C C60A, for which the yeast fitness is no more than 0.5. The result for A15C U26A C31G U32A G50U G63A reads no more than 0.5; that for U3G C31G A37G C62U G63C, no more than 0.5; that for C46G C62A, 0.873. As for U8C C11G, the yeast fitness worked out at 0.686. The result for U3G C55A A69C reads no more than 0.5.

Take G9A C22U C62A: the yeast fitness is no more than 0.5. The result for G9A G12C A65G G67C A69G reads no more than 0.5; that for G12C A14C A15G A37C A69C, no more than 0.5. The result for C24A A43C G56A reads no more than 0.5; that for G10A A21C C24A A65U A69C, no more than 0.5; that for A20C C46G C49A C61U, no more than 0.5.

On to C34A A36C C49U, for which the yeast fitness was no more than 0.5. For G10C A42U C61U C62U, the yeast fitness is no more than 0.5. Consider C4G C30A C66U A69C, for which the yeast fitness was no more than 0.5.

Consider U28A A42G A70C, for which the yeast fitness was no more than 0.5. The result for G25A C31A C33G C46U reads no more than 0.5.
